{
  "sequences": {"note": "Chains of the proteins cited; added tags and fusions are not shown.", "UniProt P33535, whole entry": "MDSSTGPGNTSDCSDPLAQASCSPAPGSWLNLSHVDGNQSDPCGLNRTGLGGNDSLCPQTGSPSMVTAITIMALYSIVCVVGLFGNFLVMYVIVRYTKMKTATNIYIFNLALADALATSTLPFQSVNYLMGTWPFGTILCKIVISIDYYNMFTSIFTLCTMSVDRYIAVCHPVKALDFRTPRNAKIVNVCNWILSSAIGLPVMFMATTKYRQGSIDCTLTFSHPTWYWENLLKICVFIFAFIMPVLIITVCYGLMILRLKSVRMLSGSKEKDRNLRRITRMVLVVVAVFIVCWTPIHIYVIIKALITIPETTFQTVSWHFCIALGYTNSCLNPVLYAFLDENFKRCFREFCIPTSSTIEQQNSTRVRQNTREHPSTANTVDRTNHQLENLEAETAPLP"},
  "source": "patent US6943148B1",
  "about": "“Methods for delivering therapeutics across blood-barrier and for altering receptor binding affinity” (Nobex Corporation, priority 1998, dated 2005)",
  "key": {"Opioid μ-receptor": {"biological_target": "T1, Opioid μ-receptor (Rattus norvegicus, UniProt P33535)", "T1 construct": "assessed for analgesic activity by rat paw-hot plate assay; from tissue; host or cells: whole living rat (in vivo)", "assay": "Rat paw-hot plate test with naloxone pre-treatment", "type": "in vivo", "conditions": "naloxone 0.5 mg/kg s.c., 10 minutes later cetyl-enkephalin 5.0 mg/kg by tail vein; FIG. 6"}, "Sprague-Dawley rats": {"tested_on": "Sprague-Dawley rats", "assay": "Rat paw-hot plate test", "type": "in vivo", "experimental": "Adult, male Sprague-Dawley rats weighing 150-175 g were obtained from Charles River Breeding Laboratories (Raleigh, NC) and used for all animal studies. Rats were housed in hanging wire-bottomed cages in a vivarium equipped with a 12:12 light:dark cycle and humidity was maintained between 45-65% with a room temperature of […]. Rats were provided Purina Rodent Chow and tap water ad libitum.\nMet-enkephalin-lys SEQ ID NO: 49 and met-enkephalin-lys SEQ ID NO: 1 derivatives were assessed for analgesic activity by rat paw-hot plate assay. Rats were given an injection of naloxone at 0.5 mg/kg (s.c.) then administered a single administration of cetyl-enkephalin SEQ ID NO: 1 by the tail vein 10 minutes later at a dose of 5.0 mg/kg.\nIn a separate study, rats were administered cetyl-enkephalin SEQ ID NO: 1 (5.0 mg/kg, i.v.) or clonidine (0.125 mg/kg, i.v.).\nThe latency to rat paw withdrawal from the hot plate was measured by a Hot Plate Analgesia Meter (Harvard Apparatus Ltd., Kent, England). The temperature of the hot plate was set and calibrated at 52° C. and rats were removed from the heat stimulus by 36 seconds after placement. Latency trials were terminated when the animal was either licking a hind paw or initiating a jump from the plate. Baseline measurements were collected 1 hour prior to drug administration and at various times post-injection, dependent upon the study conducted. All hot plate testing was terminated by 1 hour after drug dosing."}},
  "note": "At least one peptide structure holds a part that was inferred or is arguable (an end, a ring closure or a residue). For at least one compound, name, drawing or mass did not settle the structure. Where a SMILES comes first, the peptide text is derived from it. The star is where a group is joined. X1 = CCCCCCCCCCCCCCCCOCCOCCOC(=O)*",
  "data": [
    {"compound": "CCCCCCCCCCCCCCCCOCCOCCOC(=O)NCCCC[C@H](NC(=O)[C@H](CCSC)NC(=O)[C@H](Cc1ccccc1)NC(=O)CNC(=O)CNC(=O)[C@@H](N)Cc1ccc(O)cc1)C(=O)O", "note": "[Cetyl-PEG-ENK, CETYL MET-ENKEPHALIN-LYS] (H-YGGFMK(X1)-OH)", "values": [
      {"measurement": "effect of naloxone pre-treatment on the activity of the conjugate", "setting": "Opioid μ-receptor", "result": "prevents competitively inhibits binding of cetyl-PEG2-enkephalin"},
      {"measurement": "analgesic response and duration versus clonidine", "setting": "Sprague-Dawley rats; cetyl-enkephalin 5.0 mg/kg i.v. vs clonidine 0.125 mg/kg i.v., FIG. 7", "result": "comparable to that of clonidine"},
      {"measurement": "Mean Analgesia as Compared with Morphine at 3 mg/Kg @ 5 min", "setting": "Sprague-Dawley rats; hot plate 52° C., @ 5 min, dose (mg/kg): Morphine 3, Enkephalin 20, Cetyl 5, DHA 20, Cholesterol 5, Linolenic 10", "result": 84, "unit": "%"},
      {"measurement": "Mean Analgesia as Compared with Morphine at 3 mg/Kg @ 30 min", "setting": "Sprague-Dawley rats; hot plate 52° C., @ 30 min, dose (mg/kg): Morphine 3, Enkephalin 20, Cetyl 5, DHA 20, Cholesterol 5, Linolenic 10", "result": 75, "unit": "%"}
    ]}
  ]
}
